Source: PubChem BioAssay AID1671190 (National Center for Advancing Translational Sciences (NCATS), 2021)
About 6,100 (1.1%) of roughly 580,000 compounds were called active. The inconclusive results got no clear call from the source; some entries with a clear call stand among them for comparison. Calls come from the whole dose curve; as a rule, active = well fitted inhibition curve with a large enough effect; inconclusive = small, poorly fitted or top-dose-only effect, or another doubt; inactive = no such curve, though single readings can be large or run the other way. Potencies of inconclusive entries are doubtful fits and often do not repeat.

Chains of the proteins cited; added tags and fusions are not shown. Lines headed by an entry give the natural chain unless they say otherwise; changes in a name come on top.
UniProt P18054: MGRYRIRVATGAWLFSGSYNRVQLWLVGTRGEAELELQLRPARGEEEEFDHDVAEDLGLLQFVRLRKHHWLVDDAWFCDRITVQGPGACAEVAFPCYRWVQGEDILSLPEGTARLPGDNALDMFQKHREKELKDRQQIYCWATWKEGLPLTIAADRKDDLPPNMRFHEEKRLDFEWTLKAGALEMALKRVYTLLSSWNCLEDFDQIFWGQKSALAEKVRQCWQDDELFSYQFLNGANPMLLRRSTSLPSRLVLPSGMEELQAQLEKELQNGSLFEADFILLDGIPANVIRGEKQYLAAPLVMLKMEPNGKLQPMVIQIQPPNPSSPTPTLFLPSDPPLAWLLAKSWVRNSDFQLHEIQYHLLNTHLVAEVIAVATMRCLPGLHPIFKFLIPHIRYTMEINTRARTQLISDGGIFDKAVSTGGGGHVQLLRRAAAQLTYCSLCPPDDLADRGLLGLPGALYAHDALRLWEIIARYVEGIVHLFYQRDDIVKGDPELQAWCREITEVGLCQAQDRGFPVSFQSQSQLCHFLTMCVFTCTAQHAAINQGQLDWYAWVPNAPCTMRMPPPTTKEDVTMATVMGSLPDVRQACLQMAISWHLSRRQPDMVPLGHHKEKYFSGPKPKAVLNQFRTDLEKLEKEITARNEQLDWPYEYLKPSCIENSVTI

molecular target: Polyunsaturated fatty acid lipoxygenase ALOX12 (Homo sapiens) (UniProt P18054); assay: Primary qHTS assay for inhibitors of human arachidonate 12S-lipoxygenase (ALOX12): Round 2; settings: purified 12hLO, xylenol orange hydroperoxide absorbance; activity change, negative = inhibition: at 108 µM (top of the series) unless noted
Summary of the method: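 Purified human 12hLO at 150 nM in 25 mM Hepes, 0.01% Triton X-100, pH 7.0, preincubated 15 min at room temperature with compound. Reaction started with 40 uM arachidonic acid, 30 min at room temperature. Hydroperoxide measured by Fe-xylenol orange, 573/405 nm absorbance ratio.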
% is set by controls: 0 for no effect and ±100 for the full control effect; potency is the fitted concentration of half-maximal effect.

| SMILES | Potency | activity change, negative = inhibition |
| --- | --- | --- |
| CSc1nnc2n(-c3ccccc3)c(=O)c3c4c(sc3n12)CCC4 | inconclusive: 8.91 µM [inhibitor, partial curve, poor fit] |  |
| CCn1c2c(c(=O)n1Cc1ccccc1)CCN(C(=O)C1CCC(OC)CC1)C2 (stereo unspecified) | inactive |  |
| N#CNC(=Nc1cccc(F)c1)SCc1cccc(F)c1 | inactive |  |
| O=S(=O)(Nc1cccc(-c2ccc(N3CCCCC3)nn2)c1)c1ccc(Cl)s1 | inconclusive: 3.98 µM [inhibitor, full curve, poor fit] |  |
| C=C(C)CC1(Nc2ccccc2C)CCCCC1 | inconclusive: 25.1 µM [inhibitor, partial curve, poor fit] |  |
| Fc1ccc(CNc2nc3ccc(Cl)cc3n3nnnc23)cc1 | inconclusive: 126 µM [inhibitor, partial curve, poor fit] |  |
| CCc1nc2ccc(C(=O)NCc3ccccc3)cc2nc1CC | inconclusive: 39.8 µM [inhibitor, partial curve, poor fit] |  |
| COc1ccc(-c2cc(=O)oc3cc(OCC(=O)N4CCC(O)CC4)ccc23)cc1 | inactive |  |
| COc1ccc2cnn(CC(=O)Nc3ccccc3F)c(=O)c2c1OC | inactive |  |
| Cn1c(N/N=C/c2c[nH]c3ccccc23)nc2ccccc21 | active: 44.7 µM |  |
| COCCN1CC(CO)C2(CCN(C(=O)CN3CCOCC3)CC2)C1 (stereo unspecified) | inactive |  |
| O=C(c1ccc(Cl)cc1)N1CCOCC2(CN(Cc3cc(F)cc(F)c3)C2)C1 | inactive |  |
| CC(C)c1ccccc1OCC(O)CN1CCN(S(=O)(=O)c2ccc([N+](=O)[O-])cc2)CC1 (stereo unspecified) | inconclusive: 3.98 µM [inhibitor, full curve, poor fit] |  |
| COC(=O)c1ccc(/C=N\N2CCN(c3ccccc3)CC2)cc1 | inactive |  |
| Cc1ccccc1-n1nnnc1SCC(=O)N(Cc1ccco1)C1=CCCCC1 | active: 8.91 µM |  |
| Cc1ccc(NCCCn2cnc(C(=O)Nc3ccc(C)c(C)c3)n2)cc1C | inconclusive: 112 µM [inhibitor, partial curve, poor fit] |  |
| CCNC(=S)N/N=C(\C)c1cccc(OC)c1 | inconclusive: 44.7 µM [inhibitor, partial curve, poor fit] |  |
| Cc1cnc2c(S(=O)(=O)N3CCCC3C(=O)N(C)C)cccc2c1 (stereo unspecified) | inactive |  |
| CCCc1nc(C(=O)N2CCC3(CCCNC3)C2)cs1 (stereo unspecified) | inconclusive: 14.1 µM [inhibitor, full curve] |  |
| COc1ccc(C2CC(=O)Nc3nc(N)sc32)cc1OC1CCCC1 (stereo unspecified) | inconclusive: 2.82 µM [inhibitor, full curve, poor fit] |  |
| CN[C@H]1CCc2cc(OC)c(OC)c(OC)c2-c2ccc(OC)c(=O)cc21 | inactive |  |
| CCOc1ccc(C(CC(=O)Nc2cc(OC)cc(OC)c2)N2Cc3ccccc3C2=O)cc1OC (stereo unspecified) | inconclusive: 126 µM [inhibitor, single point] |  |
| COc1ccc(Nc2ncnc3sc(C)cc23)c(OC)c1 | inconclusive: 28.2 µM [inhibitor, full curve, poor fit] |  |
| CC(=O)N1CCCc2cc(S(=O)(=O)N3CCN(c4ccc(F)cc4)CC3)ccc21 | inconclusive: 126 µM [inhibitor, single point] |  |

By substructure, the compounds so far containing a Cl atom.

| SMILES | Potency | activity change, negative = inhibition |
| --- | --- | --- |
| O=S(=O)(Nc1cccc(-c2ccc(N3CCCCC3)nn2)c1)c1ccc(Cl)s1 | inconclusive: 3.98 µM [inhibitor, full curve, poor fit] |  |
| Fc1ccc(CNc2nc3ccc(Cl)cc3n3nnnc23)cc1 | inconclusive: 126 µM [inhibitor, partial curve, poor fit] |  |
| O=C(c1ccc(Cl)cc1)N1CCOCC2(CN(Cc3cc(F)cc(F)c3)C2)C1 | inactive |  |

Continuation:

| SMILES | Potency | activity change, negative = inhibition |
| --- | --- | --- |
| Cc1ccc2[nH]c(=O)c(CN(Cc3nnnn3C3CCCC3)C3CCCCC3)cc2c1 | inconclusive: 28.2 µM [inhibitor, partial curve] |  |
| Cc1ccc(C2C(C#N)=C(N)OC3=C2C(=O)CCC3)cc1 (stereo unspecified) | inactive |  |
| O=C(Nc1ccccc1Oc1cccnc1)C1CCCN(Cc2cccc(Cl)c2)C1 (stereo unspecified) | inconclusive: 112 µM [inhibitor, single point] |  |
| COCCNC(=O)c1cc(-c2ccccc2)nc2ccc(C)cc12 | inactive |  |
| COC(=O)c1c(C)[nH]c(-c2cccc(OC)c2)c1C1C(=O)Nc2ccc(F)cc21 (stereo unspecified) | inconclusive: 7.94 µM [inhibitor, full curve, poor fit] |  |
| CCC(CNC(=O)c1c(C)nn(-c2ccccc2)c1Cl)c1ccccc1 (stereo unspecified) | inactive |  |
| Cn1c(C(=O)O)c(CC(=O)Nc2ccc(F)cc2F)c2ccccc21 | inactive |  |
| O=C(O)CCn1c(=O)[nH]c2ccccc2c1=O | inconclusive: 89.1 µM [inhibitor, single point] |  |
| Cc1nc(SCC(=O)c2cc3ccccc3oc2=O)c(C#N)c(-c2cccs2)c1C(=O)Nc1ccccc1 | inactive |  |
| CCc1c(C)sc(NC(=O)C2CC2)c1C#N | active: 28.2 µM |  |
| Cc1cccc(-n2ccnc2SCC(=O)Nc2nccs2)c1C | inactive |  |
| CC1CCCC(NC(=O)c2ccc(F)cc2F)C1C (stereo unspecified) | inconclusive: 2.82 µM [inhibitor, full curve, poor fit] |  |
| N/C(=N\OC(=O)c1cccc(Br)c1)c1ccccn1 | inactive |  |
| Cc1ccc(NC(=O)COC(=O)C2(c3ccccc3F)CCCC2)c([N+](=O)[O-])c1 | inconclusive: 112 µM [inhibitor, single point] |  |
| CCC(CC)C(=O)N(C)c1c(C)nc2c(OCc3ccc(C(F)(F)F)cc3)cccn12 | inconclusive: 89.1 µM [inhibitor, single point] |  |
| COc1ccc([C@@H]2[C@@H](C(=O)C(C)(C)C)N3N=Cc4ccccc4[C@@H]3C23C(=O)OC(C)(C)OC3=O)cc1OC | inconclusive: 56.2 µM [inhibitor, partial curve, poor fit] |  |
| Cc1cc(C)c(/C=C/c2onc(C)c2S(=O)(=O)N2CCC(C(=O)N3CCN(c4ccc(Cl)cc4)CC3)CC2)c(C)c1 | inconclusive: 100 µM [inhibitor, partial curve, poor fit] |  |
| Cc1c(CCC(=O)O)c(=O)oc2cc3occ(C(C)(C)C)c3cc12 | inactive |  |
| O=C(Cn1nnc(-c2cccc(C(F)(F)F)c2)n1)NNS(=O)(=O)c1cccc(C(F)(F)F)c1 | inconclusive: 2.82 µM [inhibitor, full curve, poor fit] |  |
| COc1ccccc1-c1cc(NCc2cnc(C)cn2)ncn1 | active: 5.62 µM |  |
| Cc1ccc(NC(=O)CCC2CCN(C(=O)c3ccccc3F)CC2)cc1 | inactive |  |
| Cc1cc2cc(C(=O)N(C)Cc3ccc4nsnc4c3)ccc2o1 | inactive |  |
| CCCc1c(C(=O)Nc2ccc(NC(C)=O)cc2)nnn1-c1ccc2noc(-c3ccccc3)c2c1 | inconclusive: 1.12 µM [inhibitor, full curve, poor fit] |  |
| Cn1cnc2c(cnn2C)c1=N | inconclusive: 44.7 µM [inhibitor, partial curve, poor fit] |  |

| SMILES | Potency | activity change, negative = inhibition |
| --- | --- | --- |
| Cc1nc(SCCC(=O)O)c2ccccc2n1 | inactive |  |
| COc1cccc(NC(=O)Cc2c(Cl)cccc2Cl)c1 | inactive |  |
| Cc1ccc2oc3c(c(=O)c2c1)C(c1cccc(Cl)c1)N(CCCN1CCOCC1)C3=O (stereo unspecified) | inactive |  |
| CC(=O)c1cc2c(cc1NC(=O)c1cc(C)nn1-c1ccccc1)OCO2 | inconclusive: 100 µM [inhibitor, single point] |  |
| Cn1c(CCN2CCCCC2)nc2cc(NS(=O)(=O)c3ccc(Cl)cc3)ccc21 | inconclusive: 39.8 µM [inhibitor, partial curve, poor fit] |  |
| COc1ccc(-n2nc(C(=O)N(C)C)nc2-c2ccccc2)cc1 | inactive |  |
| CCNC(=O)c1c(C)oc2c1CN(C(=O)CCc1ccccc1)CC2 | inconclusive: 10 µM [inhibitor, partial curve] |  |
| CCNC(=S)Nc1ccc(Cc2nc3ccccc3[nH]2)cc1 | inactive |  |
| c1ccc(-c2csc(NC3CCCCC3)n2)cc1 | inconclusive: 89.1 µM [inhibitor, partial curve, poor fit] |  |
| O=C(O)C1CC(=O)N(c2ccc(OCc3ccc(Cl)cc3Cl)cc2)C1 (stereo unspecified) |  | inconclusive: -32% [inhibitor] |
| O=C(Cn1cnc2ccccc2c1=O)Nc1ccccc1N1CCOCC1 | inconclusive: 3.55 µM [inhibitor, full curve, poor fit] |  |
| CN1CCC(NC(=O)c2n[nH]c3c2CN(C(=O)c2cccc(F)c2)CC3)CC1 | inactive |  |
| CC1C=CCC2C(=O)N(c3cccc(C(=O)N4CCN(c5ccc(F)cc5)CC4)c3)C(=O)C12 (stereo unspecified) | inconclusive: 35.5 µM [inhibitor, partial curve, poor fit] |  |
| Cc1nc2cc(NC(=O)COc3ccc(F)cc3)ccc2o1 | inconclusive: 56.2 µM [inhibitor, partial curve, poor fit] |  |
| O=C(C[C@@H]1CCNC[C@@H]1Cc1cc(CC2CCCCC2)on1)NCc1ccccc1 | inconclusive: 39.8 µM [inhibitor, full curve] |  |
| CCC(C)[C@H](NC(=O)OC(C)(C)C)C(=O)NCC1CCC(C(=O)N[C@@H](Cc2ccccc2)C(=O)O)CC1 (stereo partly specified) | inconclusive: 112 µM [inhibitor, single point] |  |
| COc1cc(/C=C2/SC(=Nc3ccc(O)cc3)NC2=O)ccc1O | inconclusive: 79.4 µM [inhibitor, partial curve, poor fit] |  |
| O/N=C/c1ccccc1Br | inactive |  |
| C=CCOC(=O)C1=C(C)N=C2SC=C(CC(=O)NCC(C)C)N2C1c1ccccc1Cl (stereo unspecified) | inconclusive: 28.2 µM [inhibitor, partial curve, poor fit] |  |
| Cc1ccc(S(=O)(=O)/N=C2/NC(=O)/C(=C/c3cc([N+](=O)[O-])ccc3O)S2)cc1 | active: 10 µM |  |
| O=C(CCC(=O)Nc1ccc(F)cc1)N/N=C/c1ccc(O)cc1O | inactive |  |
| CC(=O)OC(C(=O)NCS(=O)(=O)c1ccc(C)cc1)c1cccnc1 (stereo unspecified) | inconclusive: 89.1 µM [inhibitor, partial curve, poor fit] |  |
| OCc1cc(CC2(NCC3CC3)COC2)no1 | inconclusive: 70.8 µM [inhibitor, full curve, poor fit] |  |
